Experimental data as given in publication PMC6070541.
Results are given in words; binding and its absence hold for the method and conditions named. In cells and extracts the contact can be indirect. Some binding calls cover weakened binding; strength is not graded here. Each block holds one binder with its values, some of them ahead of it.

Protein sequences, listed by entry. Tags and fused reporters are not part of them. Residues count along the entry.
UniProt P50284, residues 31-415: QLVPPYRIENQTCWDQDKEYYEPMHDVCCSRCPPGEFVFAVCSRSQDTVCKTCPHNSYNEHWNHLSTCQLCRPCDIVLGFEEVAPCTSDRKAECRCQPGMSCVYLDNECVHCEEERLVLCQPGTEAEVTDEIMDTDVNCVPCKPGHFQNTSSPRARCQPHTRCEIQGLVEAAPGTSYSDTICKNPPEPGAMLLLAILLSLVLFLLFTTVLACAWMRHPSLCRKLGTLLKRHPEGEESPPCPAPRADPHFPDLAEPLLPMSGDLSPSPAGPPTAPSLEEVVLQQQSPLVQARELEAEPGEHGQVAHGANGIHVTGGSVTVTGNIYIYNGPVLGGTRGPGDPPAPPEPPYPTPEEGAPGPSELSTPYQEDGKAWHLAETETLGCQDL

Legend:
[1] = target: Lymphotoxin-beta receptor (LTβR) (mouse (endogenous in primary LEC)) (UniProt P50284); test: co-IP; LEC pretreated with 50 μM NIKi (4H-isoquinoline-1,3-dione), then stimulated with anti-LTβR mAb (2 μg/mL) for 10 min; LTβR complex precipitated with anti-LTβR and blotted for TRAF2 and TRAF3
[2] = target: Lymphotoxin-beta receptor (LTβR) (mouse (endogenous in primary LEC)) (UniProt P50284); test: co-IP; 500 μg LEC extract with 1 μg anti-mLTβR (5G11b) overnight, protein G agarose 4 h; lysis buffer 20 mM Hepes pH 7.4, 150 mM NaCl, 0.5% Triton X-100; cells unstimulated or stimulated with anti-LTβR mAb (2 μg/mL) for 10 min; blots with anti-TRAF2, anti-TRAF3, anti-LTβR
[3] = target: T1, TNFR-associated factor 3 (TRAF3) (mouse (endogenous in primary LEC)) (UniProt Q60803); test: co-IP; LEC pretreated with the cell-permeable peptide (20 μM), then stimulated with anti-LTβR mAb (2 μg/mL) for 10 min; LTβR complex precipitated with anti-LTβR and blotted for TRAF2 and TRAF3; loss of TRAF from the receptor complex is the read-out; only the binder purified
T1 sequence: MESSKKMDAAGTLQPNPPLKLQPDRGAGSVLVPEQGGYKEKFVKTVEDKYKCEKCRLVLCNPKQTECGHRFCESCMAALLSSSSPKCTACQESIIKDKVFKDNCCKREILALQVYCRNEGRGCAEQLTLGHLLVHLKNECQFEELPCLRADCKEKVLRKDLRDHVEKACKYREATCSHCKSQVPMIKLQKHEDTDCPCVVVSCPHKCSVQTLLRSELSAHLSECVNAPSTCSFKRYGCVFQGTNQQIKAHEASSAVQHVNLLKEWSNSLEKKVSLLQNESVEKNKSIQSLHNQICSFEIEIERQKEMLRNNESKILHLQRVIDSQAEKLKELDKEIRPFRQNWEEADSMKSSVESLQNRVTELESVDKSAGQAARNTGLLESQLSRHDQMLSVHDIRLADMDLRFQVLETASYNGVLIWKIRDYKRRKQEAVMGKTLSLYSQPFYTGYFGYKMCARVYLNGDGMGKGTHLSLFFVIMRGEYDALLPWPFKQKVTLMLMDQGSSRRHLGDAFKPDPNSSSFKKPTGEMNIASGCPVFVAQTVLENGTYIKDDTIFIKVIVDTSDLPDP

[4] = target: T2, TNFR-associated factor 2 (TRAF2) (mouse (endogenous in primary LEC)) (UniProt P39429); test: as above
T2 sequence: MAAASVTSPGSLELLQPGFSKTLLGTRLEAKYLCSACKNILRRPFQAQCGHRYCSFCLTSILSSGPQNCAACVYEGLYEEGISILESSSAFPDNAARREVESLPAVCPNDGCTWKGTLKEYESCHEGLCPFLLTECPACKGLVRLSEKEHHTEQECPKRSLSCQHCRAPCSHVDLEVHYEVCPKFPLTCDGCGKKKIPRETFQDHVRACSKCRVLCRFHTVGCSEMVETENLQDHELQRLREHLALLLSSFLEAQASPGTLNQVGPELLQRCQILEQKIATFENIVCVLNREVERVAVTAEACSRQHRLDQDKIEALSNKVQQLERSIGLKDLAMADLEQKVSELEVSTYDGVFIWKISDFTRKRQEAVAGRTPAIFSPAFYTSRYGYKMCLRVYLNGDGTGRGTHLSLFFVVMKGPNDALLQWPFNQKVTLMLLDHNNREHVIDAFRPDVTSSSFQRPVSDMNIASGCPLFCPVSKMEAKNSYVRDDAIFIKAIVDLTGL

B1: TNFR-associated factor 2 (TRAF2) (protein, UniProt P39429 1-501)
chain: T2 sequence
binding [1]: no binding (condition: cells pretreated with 50 μM NIKi)
binding [2]: binds

binding [3]: binds
Binder: RQIKIWFQNRRMKWKKTGNIYIYNGPVL [nciLT, LTβR-derived decoy peptide targeting non-classical NFκB signaling]

B2: TNFR-associated factor 3 (TRAF3) (protein, UniProt Q60803 1-567)
chain: T1 sequence
binding [1]: no binding (condition: cells pretreated with 50 μM NIKi)
binding [2]: binds

binding [4]: binds
Binder: RQIKIWFQNRRMKWKKTPEEGAPGP [ciLT, LTβR-derived decoy peptide targeting classical NFκB signaling]
